Measurements: patent EP0998480B1, “NUCLEOTIDE ANALOG COMPOSITION AND SYNTHESIS METHOD” (GILEAD SCIENCES, INC., priority 1997, dated 1999)
The name of at least one read-out is uncertain.

Assay: solid state chemical stability on storage at elevated temperature and relative humidity
Type: physicochemical
Settings: 75% relative humidity, degradation product in stored BPPF
Excerpt: The solid state chemical stability of cBPPF and bis(POC)PMPA•citrate salt was compared by analyzing each compound after storage under different conditions.

9-[2-(R)-[[Bis[[(isopropoxycarbonyl)oxy]methoxy]phosphinoyl]methoxy]propyl]adenine• fumaric acid [BPPF]
mono(POC) PMPA fumarate% (40°C, 14 days): 1.7%
mono(POC) PMPA fumarate% (40°C, 30 days): 1.9%
mono(POC) PMPA fumarate% (40°C, 60 days): 2.9%
mono(POC) PMPA fumarate% (60°C, 3 days): 3.1%
mono(POC) PMPA fumarate% (60°C, 11 days): 9.6%
mono(POC) PMPA fumarate% (60°C, 15 days): 18.7%
